63 compounds from PubChem BioAssay AID493014 (National Center for Advancing Translational Sciences (NCATS), 2011) can be followed below.

The assay in a line: qHTS Assay to Find Inhibitors of Chronic Active B-Cell Receptor Signaling. The following applies: ABC-DLBCL IkBa-CBG/CBR reporter, luminescence ratio (green luciferase fused to IkBa over red control in TMD8 lymphoma cells), 4 h. Summed up:
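TMD8 ABC-DLBCL cells carrying doxycycline-inducible green luciferase fused to IkappaBalpha plus unfused red luciferase were exposed to compounds (up to 46 uM) for 4 hrs at 37C. Activity came from the overlap-corrected green/red luminescence ratio.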
A general note: In qHTS, concentration-response curves come from the screen itself.

[1] abbreviates: measured here: CBR red luminescence, cell number.
Setting [2] is: measured here: IkBa-CBG green luminescence.

The AC50 is the concentration at which the activity in the assay is half-maximal.

“And” between values parts separate entries of the source, which are not always exact repeats. Identical values can stand only once. Some of the results follow. These are further read-outs of the screen, such as a control signal, another cell line or another target. No call is given for them. Compounds called inactive in the main read-out are mostly missing here. The note in brackets gives the kind of curve behind each potency; many fits are weak.

As to `ClCC1NCC(c2ccccc2Cl)c2c1[nH]c1ccccc21` (stereo unspecified), under setting [1], the AC50 is 17.8 µM [falling, partial curve, poor fit].

As for `COc1ccccc1-c1cc(C(=O)Nc2ccccc2SC)no1`, under setting [1], the AC50 was 0.0282 µM [falling, full curve, poor fit].

Take `C=CCn1c2ccccc2c2nnc(SCc3ccc4nonc4c3)nc21`: the AC50 under setting [1] is 6.51 µM [falling, single point]. Same read-out and setting: to `COc1ccccc1C(=O)N/N=C(\C)CC(=O)Nc1ccc(Nc2ccccc2)cc1` belongs 0.794 µM [falling, full curve, poor fit]; to `CC[C@H](CO)Nc1nc(Nc2cccc(Cl)c2)c2ncn(C(C)C)c2n1`, 2.24 µM [falling, partial curve, poor fit]; to `CC1CCc2[nH]c3ccc(C(=O)O)cc3c2C1` (stereo unspecified), 0.447 µM [falling, full curve, poor fit].

As to `Cn1c(CCCNC(=O)c2ccccc2)nc2ccccc21`, the half-maximal activity concentration (AC50) under setting [1] was 23.1 µM [rising, partial curve, poor fit]. Still for that read-out and setting: to `O=c1oc(C2(O)CCCCC2)cc2ccc(Br)cc12` belongs 2.91 µM [rising, partial curve, poor fit]; to `CSc1cccc(CN2CCC(CO)(Cc3cccc(C(F)(F)F)c3)CC2)c1`, 11.2 µM [falling, partial curve, poor fit]. Still for that read-out and setting: to `CCN(C(=O)COC(=O)c1cc2c(s1)CCCC2)c1c(N)n(Cc2ccccc2)c(=O)[nH]c1=O` belongs 1.16 µM [rising, partial curve, poor fit]. Same read-out and setting: next, `COc1ccc(/C=N/NC(=O)c2cccc(NC(C)=O)c2)c(C(=O)O)c1OC`: 7.08 µM [falling, partial curve]. Turning to `COc1ccccc1NC(=O)Nc1nc(CC(=O)N2CCN(c3ccc(F)cc3)CC2)cs1`, under setting [1], the AC50 was 2.06 µM [rising, partial curve]. On to `CCC(=O)Nc1ccccc1C(=O)OCC(=O)Nc1ccc(S(N)(=O)=O)cc1`, for which the AC50 under setting [1] was 11.6 µM [falling, single point]. Same read-out and setting: next, `O=C(CSc1nc2ccccc2n1-c1ccccc1)Nc1ncc(Cl)cc1Cl`: 18.4 µM [falling, partial curve]. Take `Cc1ccc(-n2c(Cl)c(Cl)nc(Cl)c2=O)cc1`: the AC50 is, setting by setting: under setting [1], 5.17 µM [falling, full curve]; under setting [2], 4.61 µM [rising, full curve, poor fit]. Consider `CCOC(=O)C1=C(C)N(C)C(=O)NC1c1ccc(C)s1` (stereo unspecified), for which the AC50 under setting [1] was 11.6 µM [rising, partial curve, poor fit]. On the same count and under the same terms, next, `COc1ccc(-c2c(C)nn3c(Cl)c(C)c(C)nc23)cc1`: 3.16 µM [rising, partial curve, poor fit]. On the same count and under the same terms, next, `COc1ccc(CC(=O)Nc2ccc(C(=O)NCC(C)C)cc2)cc1`: 7.08 µM [rising, full curve]; `Cc1ccc(S(=O)(=O)N2CCOCC2)cc1NC(=O)C1=NN(c2ccccc2)C(=O)CC1`: 2.51 µM [rising, partial curve, poor fit]. Still for that read-out and setting: next, `O=C(N/N=C/C1CC=CCC1)c1ccccc1O` (stereo unspecified): 3.16 µM [falling, full curve]; `O=C(CSc1cccc2cccnc12)NCc1ccco1`: 5.62 µM [rising, single point]. Regarding `CCN(CC)S(=O)(=O)c1cccc(N=Nc2sc(N)nc2C)c1`, the AC50 under setting [2] was 8.91 µM [falling, partial curve, poor fit]. For `CCN(CC(=O)NCc1ccc(F)cc1)C(=O)COc1ccc2ccccc2c1`, the AC50 under setting [1] is 13 µM [falling, partial curve]. `COc1ccc(C)cc1N(CC(=O)N/N=C/c1ccc2c(c1)OCO2)S(C)(=O)=O`: the AC50 under setting [2] was 12.6 µM [rising, partial curve, poor fit].

In the case of `CCc1ccccc1NC(=O)COc1cccc(-n2cnnn2)c1`, the concentration at half-maximal activity (AC50) under setting [1] is 11.2 µM [falling, partial curve, poor fit]. `CCOC(=O)c1sc(NC(=O)c2cccc(S(=O)(=O)N3CCN(C)CC3)c2)cc1C`: the AC50 under setting [1] is 22.4 µM [falling, partial curve, poor fit]. The same measure, in the same setting: next, `COC(=O)c1ccc(/C=N/NC(=O)c2ccccc2Cl)cc1`: 9.2 µM [falling, partial curve]; `COc1ccc(OC)c(NC(=O)c2ccc(NC3=NC4CS(=O)(=O)CC4S3)cc2)c1` (stereo unspecified): 0.891 µM [rising, full curve]; `O=C(C[n+]1ccccc1)c1ccc(NC(=O)c2ccccc2)cc1`: 8.91 µM [falling, single point].

`O=C(Nc1ccc(N2CCCC2)c(Cl)c1)c1ccccc1[N+](=O)[O-]`: the AC50 under setting [1] is 2.31 µM [falling, partial curve, poor fit]. As for `CCOc1cc(C(=O)OCC(=O)Nc2ccc(Cl)cn2)ccc1OCC(=O)N1CCOCC1`, the AC50 under setting [1] was 4.11 µM [rising, partial curve, poor fit]. Still for that read-out and setting: to `CCCn1c2ccccc2c2cnn(CC(=O)NCCCN3CCCC(C)C3)c(=O)c21` (stereo unspecified) belongs 11.2 µM [falling, partial curve, poor fit]. Still for that read-out and setting: next, `COc1ccccc1N1C(=O)C(Cl)=C(Nc2ccccc2O)C1=O`: 0.794 µM [falling, full curve]. Same read-out and setting: next, `Cc1ccc(C(=O)Nc2nc(-c3ccc(F)cc3)cs2)o1`: 0.112 µM [falling, full curve, poor fit]; `O=C(Oc1ccccc1)c1cc2ccccc2oc1=O`: 5.01 µM [rising, full curve, poor fit]; `Cc1cc(C)c(S(=O)(=O)c2ccccc2)c(OC(=O)c2c(F)cccc2Cl)n1`: 23.1 µM [falling, single point]. With `COc1c(Cl)cnn(-c2ccc(C)cc2)c1=O`, the AC50 under setting [1] is 20.6 µM [falling, partial curve].

`O=C(O)C1C2C=CC(C2)C1C(=O)NCCCN1CCOCC1` (stereo unspecified): the AC50 under setting [1] is 32.6 µM [falling, single point].

As for `CCC/C(C#Cc1cc(OC)cc(OC)c1)=C1/c2ccccc2C(=O)N1c1ccccc1`, the AC50 under setting [1] is 4.11 µM [falling, full curve]. Consider `Cc1ccc(C2(CCNC(C)c3cccs3)CCOC(C(C)C)C2)cc1` (stereo unspecified), for which, under setting [1], the AC50 was 35.5 µM [falling, single point]. The same measure, in the same setting: to `COc1ccc(N=c2sc3ccccc3n2C)cc1` belongs 16.4 µM [rising, single point]; to `Cc1ccc(NC(=O)CN2C(=O)S/C(=C\c3ccccn3)C2=O)cc1C`, 4.47 µM [falling, partial curve, poor fit]. Turning to `CCC(=O)c1ccc(N2CCN(C(=O)c3cccs3)CC2)c(F)c1`, the AC50 under setting [1] was 6.31 µM [rising, single point]. Same read-out and setting: next, `COC(=O)c1sccc1NC(=O)c1ccc(Br)s1`: 25.9 µM [rising, partial curve, poor fit]; `CCOC(=O)c1nnc(-c2ccccc2)nc1Sc1c(Cl)cccc1Cl`: 2.31 µM [falling, partial curve, poor fit]. On to `c1cncc(-c2ccc3ncnc(NCc4cccs4)c3c2)c1`, for which the AC50 was 8.2 µM [rising, partial curve] and 13 µM [rising, partial curve, poor fit] under setting [1]; 20.6 µM [falling, partial curve, poor fit] and 10.3 µM [falling, partial curve, poor fit] under setting [2].

Consider `O=C(CCN1C(=O)c2ccccc2S1(=O)=O)Nc1cc(Cl)ccc1Cl`, for which the AC50 under setting [1] is 7.31 µM [rising, partial curve]. On the same count and under the same terms, to `COC(=O)c1ccc(COc2ccc(/C=N/NC(N)=S)cc2)o1` belongs 7.08 µM [falling, full curve]. The same measure, in the same setting: to `c1coc(CSSCc2ccco2)c1` belongs 14.6 µM [rising, single point]. On the same count and under the same terms, to `Cn1c(N2CCN(C(=O)C34CC5CC(CC(C5)C3)C4)CC2)nc2ccccc21` belongs 29.1 µM [falling, single point]; to `Cc1cc(C)c2cc(C(=O)N3CCN(c4ncccc4C(F)(F)F)CC3)[nH]c2c1`, 6.31 µM [falling, single point]. As for `O=C(Nc1nccs1)c1ccc2c(c1)OCO2`, the AC50 under setting [1] was 20 µM [falling, single point].

For `Oc1ccc(/C=N/Nc2ccc(C(F)(F)F)cn2)c(O)c1`, the AC50 under setting [1] was 2.82 µM [rising, single point].

As to `CNC(=O)c1[nH]cnc1C(=O)Nc1cccc(OC)c1`, the AC50 under setting [1] is 0.58 µM [falling, full curve, poor fit].

Take `CCOC(=O)C1=C(COC(=O)COc2ccc(Br)cc2)NC(=O)NC1C` (stereo unspecified): the AC50 under setting [1] is 25.9 µM [falling, partial curve, poor fit]. Same read-out and setting: to `O=C(N/N=C/c1ccncc1)c1ccc(-n2cccc2)cc1` belongs 5.8 µM [rising, full curve]. As for `CN(/N=C/c1cc(Br)cc(Br)c1O)c1cccc(C(F)(F)F)n1`, the AC50 runs as follows: under setting [1], 2.24 µM [rising, full curve, poor fit]; under setting [2], 10 µM [falling, partial curve]. For `CC(C)CCNC(=O)c1nn(Cc2ccccc2)c(=O)c2ccccc12`, under setting [1], the AC50 was 3.55 µM [falling, single point]. With `O=C(NC1CC1)c1cccc(NC(=O)c2cnn(-c3ccccc3)n2)c1`, under setting [1], the AC50 was 11.6 µM [falling, single point]. Still for that read-out and setting: next, `O=C(CCl)NCc1cc(-c2ccc(Cl)cc2)no1`: 14.1 µM [falling, partial curve, poor fit]; `O=C(CCC1CCCC1)NCc1ccccn1`: 35.5 µM [rising, single point]. Same read-out and setting: to `COC(=O)C1=C(N)Oc2cc(C)n(CCCn3ccnc3)c(=O)c2C1c1cccc(Cl)c1` (stereo unspecified) belongs 2.31 µM [rising, full curve, poor fit]; to `CC(C)(C)NC(=O)C(c1ccc(O)cc1)N(Cc1ccco1)C(=O)Cn1nnc(-c2cccs2)n1` (stereo unspecified), 0.206 µM [falling, full curve, poor fit].
